The filed quantity is “Percent Effect” (%). The controls that fix the scale are not given in the record; negative values are as filed. The compounds are a random part of those screened. A dash means the value is not listed here; it may have been measured.

Protein sequences, listed by entry. Tags and fused reporters are not part of them. Residues count along the entry.
UniProt P9WPC5, whole entry: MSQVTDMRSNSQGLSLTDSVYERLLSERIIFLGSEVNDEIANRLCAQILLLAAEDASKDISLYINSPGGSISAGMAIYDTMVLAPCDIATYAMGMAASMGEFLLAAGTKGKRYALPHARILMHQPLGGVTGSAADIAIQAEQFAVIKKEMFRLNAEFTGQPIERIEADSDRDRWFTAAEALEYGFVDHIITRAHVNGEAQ
UniProt P9WPC3, whole entry partner: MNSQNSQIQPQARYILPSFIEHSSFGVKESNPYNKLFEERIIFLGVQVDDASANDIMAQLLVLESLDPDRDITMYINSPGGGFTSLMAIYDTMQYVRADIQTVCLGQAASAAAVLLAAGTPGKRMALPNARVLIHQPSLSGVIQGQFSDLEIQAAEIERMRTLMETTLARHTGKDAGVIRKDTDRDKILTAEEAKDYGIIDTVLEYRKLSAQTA
UniProt P9WFT3, whole entry: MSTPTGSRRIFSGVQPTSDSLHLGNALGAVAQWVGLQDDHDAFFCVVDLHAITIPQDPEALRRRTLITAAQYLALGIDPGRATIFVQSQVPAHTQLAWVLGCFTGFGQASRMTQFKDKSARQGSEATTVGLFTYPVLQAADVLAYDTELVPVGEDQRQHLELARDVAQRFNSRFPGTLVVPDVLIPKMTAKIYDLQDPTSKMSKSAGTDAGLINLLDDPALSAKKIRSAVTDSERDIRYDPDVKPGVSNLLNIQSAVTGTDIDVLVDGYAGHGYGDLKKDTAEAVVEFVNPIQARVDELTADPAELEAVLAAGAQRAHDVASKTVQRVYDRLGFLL
UniProt I6X8D2, whole entry: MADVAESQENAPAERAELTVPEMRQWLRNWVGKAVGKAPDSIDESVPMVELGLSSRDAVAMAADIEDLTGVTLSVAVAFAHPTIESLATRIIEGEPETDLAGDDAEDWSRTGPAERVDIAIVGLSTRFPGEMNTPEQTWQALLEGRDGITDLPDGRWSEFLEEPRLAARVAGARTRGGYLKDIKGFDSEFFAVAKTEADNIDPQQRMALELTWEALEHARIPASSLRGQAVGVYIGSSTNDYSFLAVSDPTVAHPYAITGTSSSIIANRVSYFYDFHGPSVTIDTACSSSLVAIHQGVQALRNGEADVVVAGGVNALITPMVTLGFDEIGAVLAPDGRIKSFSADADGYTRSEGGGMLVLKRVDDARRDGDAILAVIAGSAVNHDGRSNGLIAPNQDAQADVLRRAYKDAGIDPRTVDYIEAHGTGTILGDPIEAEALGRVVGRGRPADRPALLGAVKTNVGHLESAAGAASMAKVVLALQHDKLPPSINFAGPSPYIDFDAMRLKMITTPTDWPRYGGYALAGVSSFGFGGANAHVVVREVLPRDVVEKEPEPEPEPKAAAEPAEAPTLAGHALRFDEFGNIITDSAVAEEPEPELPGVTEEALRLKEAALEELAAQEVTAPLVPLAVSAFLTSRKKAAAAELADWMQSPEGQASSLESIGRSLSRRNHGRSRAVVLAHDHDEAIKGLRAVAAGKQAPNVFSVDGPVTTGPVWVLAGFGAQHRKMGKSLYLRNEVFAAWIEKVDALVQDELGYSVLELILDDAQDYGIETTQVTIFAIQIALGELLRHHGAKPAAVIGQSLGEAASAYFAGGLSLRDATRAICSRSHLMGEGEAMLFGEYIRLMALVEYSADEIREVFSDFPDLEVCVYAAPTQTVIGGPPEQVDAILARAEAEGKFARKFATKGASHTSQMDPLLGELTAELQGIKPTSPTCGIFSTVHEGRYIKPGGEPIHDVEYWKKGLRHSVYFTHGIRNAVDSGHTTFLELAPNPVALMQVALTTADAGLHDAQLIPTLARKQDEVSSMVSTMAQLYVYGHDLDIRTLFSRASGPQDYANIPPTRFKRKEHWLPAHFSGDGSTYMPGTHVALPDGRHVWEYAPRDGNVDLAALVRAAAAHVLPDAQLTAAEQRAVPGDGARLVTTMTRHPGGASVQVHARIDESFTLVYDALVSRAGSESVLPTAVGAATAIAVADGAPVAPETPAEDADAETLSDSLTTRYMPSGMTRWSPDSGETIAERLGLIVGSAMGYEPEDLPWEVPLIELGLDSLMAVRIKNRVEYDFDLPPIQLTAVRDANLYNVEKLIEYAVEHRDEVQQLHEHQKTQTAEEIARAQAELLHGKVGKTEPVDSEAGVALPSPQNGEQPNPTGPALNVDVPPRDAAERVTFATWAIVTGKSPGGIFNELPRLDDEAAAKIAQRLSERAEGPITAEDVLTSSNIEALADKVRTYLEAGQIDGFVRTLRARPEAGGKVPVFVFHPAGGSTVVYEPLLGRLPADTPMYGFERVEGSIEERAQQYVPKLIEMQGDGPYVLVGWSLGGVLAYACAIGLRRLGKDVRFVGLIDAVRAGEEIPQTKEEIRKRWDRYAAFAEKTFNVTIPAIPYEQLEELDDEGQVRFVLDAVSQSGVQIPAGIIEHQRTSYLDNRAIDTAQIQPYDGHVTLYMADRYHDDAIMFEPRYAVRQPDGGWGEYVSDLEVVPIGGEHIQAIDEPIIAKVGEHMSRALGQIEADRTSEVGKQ
UniProt Q8IDJ8, 1-583: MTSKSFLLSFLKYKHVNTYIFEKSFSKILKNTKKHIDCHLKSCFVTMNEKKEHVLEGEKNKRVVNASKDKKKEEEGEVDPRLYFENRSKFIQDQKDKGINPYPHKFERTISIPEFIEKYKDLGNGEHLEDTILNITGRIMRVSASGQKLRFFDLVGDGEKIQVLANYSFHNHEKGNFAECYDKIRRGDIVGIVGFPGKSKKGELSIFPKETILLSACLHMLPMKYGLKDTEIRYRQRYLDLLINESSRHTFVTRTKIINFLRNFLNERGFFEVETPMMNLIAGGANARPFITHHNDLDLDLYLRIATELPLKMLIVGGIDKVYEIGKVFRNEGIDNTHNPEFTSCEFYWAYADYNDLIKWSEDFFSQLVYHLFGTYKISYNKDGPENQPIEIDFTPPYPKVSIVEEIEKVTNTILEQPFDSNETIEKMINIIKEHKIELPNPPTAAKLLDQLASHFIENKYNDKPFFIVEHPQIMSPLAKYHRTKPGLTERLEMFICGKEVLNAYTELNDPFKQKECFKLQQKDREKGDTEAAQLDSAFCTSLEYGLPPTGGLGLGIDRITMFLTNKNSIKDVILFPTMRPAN

ClpP1P2: 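Protease assay of ClpP1P2, read by the AMC dye that it sets free. Target: ClpP1P2, Mycobacterium tuberculosis (UniProt P9WPC5 and UniProt P9WPC3). Tested at 50 µM. Direction is inferred from only a few compounds that gave an IC50; most scored high, so higher reads as stronger inhibition. Most other retested compounds had strongly negative values. Size under these conditions: about 69,000 compounds, about 10 of them at 50% or above in at least one test.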
MtTrpRS: 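Tryptophan-tRNA ligase, Mycobacterium tuberculosis (UniProt P9WFT3). Enzyme assay of tryptophanyl-tRNA synthetase; the read-out is not stated. Compounds at 10 µM. Direction is not recorded; retested compounds ran higher, which suggests that high means inhibition. Size under these conditions: about 65,000 compounds, about 64 of them at 50% or above in at least one test.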
Pks13 thioesterase: 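Polyketide synthase Pks13, Mycobacterium tuberculosis (UniProt I6X8D2). Enzyme assay of the thioesterase domain of polyketide synthase 13; the read-out is not stated. Compounds at 30 µM. The record gives no direction; the compounds picked for IC50 retests had high values, so higher reads as stronger inhibition. Size under these conditions: about 67,000 compounds, about 300 of them at 50% or above in at least one test.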
PfKRS1: 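Enzyme assay of the cytosolic lysyl-tRNA synthetase in 384-well plates, read by luminescence. Target: Lysine-tRNA ligase, Plasmodium falciparum 3D7 (UniProt Q8IDJ8). Compounds at 30 µM. Higher reads as stronger inhibition, judged from the few compounds that gave an IC50. Of about 69,000 compounds tested this way, about 49 (0.071%) reached 50% or more in at least one test.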

Compound	ClpP1P2	MtTrpRS	Pks13 thioesterase	PfKRS1
CC(c1nc(C2CC2)no1)N1CCN(Cc2ccc(C#N)cc2)CC1 (configuration not stated)	-1.566	-3.957	-0.0126	-4.234
COc1nccnc1N1CCN(Cc2ccc3c(c2)OCO3)C(=O)C1	-8.231	0.241	-22.36	8.562
Cc1ccc(C)c(-c2[nH]c3ccccc3c2C(=O)O)c1	-9.486	1.124	-11.49	2.288
COCC1CCN(Cc2cc(O)c3c(C)ccc(C)c3n2)CC1	8.371	-2.511	-2.755	-3.302
O=C(CCc1cccs1)N1CCC(Nc2cccnn2)CC1	-2.164	4.776	-11.17	0.7181
O=C(NCC1CC1)Nc1ccc(OCC(F)(F)F)nc1	-4.171	-3.209	-11.36	0.8768
Cc1cnc(NC(C)Cc2cnccn2)nc1N(C)C (configuration not stated)	-6.145	-0.1805	-14.4	6.27
CCOc1ccc(C(=O)N2Cc3cnc(CC)nc3C2)o1	-1.874	5.578	-31.18	-1.379
Cn1cc(-c2cnc(-c3ccnn3C)nc2)cc1C(=O)N1CCCC1	-10.12	-	11.1	1.638
Cc1cccc(CN2CCOC(C)(C(=O)N3CCOCC3)C2)n1 (configuration not stated)	9.023	-	-15.03	0.828
COCCN(Cc1ccoc1)C(=O)c1ccccc1OC	-13.83	4.919	-11.98	3.887
Cc1cc(N2CCN(C(=O)c3cn(C)c4ccccc34)CC2)nc(C)n1	-7.203	1.564	-37.93	0.5621
CNC(=O)[C@@H]1C[C@H](n2cc(-c3ccc(CN4CC=CC4)cc3)nn2)CN1	10.7	19.26	-11.48	4.494
CC(c1cn2ncsc2n1)N1Cc2ncccc2C1=O (configuration not stated)	-7.187	-0.2987	-28.08	8.622
COc1ccc2cc(C(=O)N3CCCCC3CC(N)=O)[nH]c2c1 (configuration not stated)	-0.2775	0.2398	-9.67	1.658
CCN(CC)C(CNCc1ccc(C)o1)c1ccco1 (configuration not stated)	4.524	-4.591	-10.88	6.22
O=C1CCCN1CCCC(=O)N1CCCC(Cc2cccnc2)C1 (configuration not stated)	-2.218	-	4.747	3.412
COc1ccc(NC(=O)CNc2ccc(Br)cc2F)cc1	-4.442	0.3178	14.36	5.398
CCN1CCCC(NC(=O)c2ccc(C)[nH]c2=O)C1 (configuration not stated)	4.228	1.817	6.746	0.5547
CS(=O)(=O)CCn1ccc(NC(=O)c2c(F)cccc2F)n1	-13.47	-0.7282	-7.355	-0.6461
CCOC(=O)C1CC2(CCOCC2)N2CCC(=O)N12 (configuration not stated)	-4.814	-	4.852	3.468
Cc1occc1C(=O)NCC(=O)N1CCC(COc2ccccc2)CC1	-1.085	-1.65	1.464	3.608
CN1CC(c2ccccc2)CC12CCN(C(=O)c1cncc(Cl)c1)CC2 (configuration not stated)	11.13	-3.926	30.24	4.663
CC(C)(C)n1ncc2c1CCCC2NCc1ccc2ncccc2c1 (configuration not stated)	-14.84	-1.795	-12.87	4.524
Cc1nn(C)c(C)c1CN(C)C(=O)c1cc(NC(=O)C2CC2)n(C)n1	-0.8742	1.295	-30.91	5.621
CC(NC(=O)NCCCc1n[nH]c(N)c1C#N)c1ccc(F)cc1 (configuration not stated)	-10.51	2.292	0.5064	1.552
Cc1ccc(CN2CCN(C)c3ncccc3C2)o1	-3.001	1.146	-4.537	2.92
CCc1cccc(N2CCC(NC(=O)C3CCOCC3)CC2)c1	-11.33	-6.901	-4.844	-1.366
CC1CN(Cc2nnsc2Cl)CCN1c1nccs1 (configuration not stated)	-15.58	1.05	-11.25	2.982
Cc1cc(C)n(C2CCN(S(C)(=O)=O)CC2)n1	-6.177	11.49	-15.12	-0.5396
CCC(NC(=O)CS(=O)(=O)C1CCCC1)c1cc(F)ccc1F (configuration not stated)	-13.81	-0.7048	9.169	-0.1816
Cc1nc(CN2CCC3(C2)CN(Cc2ccco2)C3)cs1	-8.08	-	-1.305	3.486
CCOCC1CN(Cc2cnn(C)c2)Cc2ncn(C)c21 (configuration not stated)	7.456	4.185	-4.03	5.796
O=C1CCCN1Cc1nnc2n1CCN(Cc1ccco1)C2	9.487	-	9.55	4.478
CS(=O)(=O)CC(=O)N(CCN1CCOCC1)Cc1ccco1	-5.688	-5	1.417	-0.3554
CC(C)N1[C@H](Cn2cncn2)C[C@@H]2CN(Cc3ccsc3)CC[C@@H]21	-0.2772	-8.585	2.83	5.971
Cc1cc(C2CCCN2C(=O)NCc2cccc(F)c2)on1 (configuration not stated)	-5.974	-0.1776	-22.87	6.34
CCC1CN(CC(=O)NCCN2CCCC2)c2ccccc2S1 (configuration not stated)	-19.07	-2.488	-19.35	3.125
Cc1noc(C)c1CN1C[C@@H]2CC(F)(F)C[C@@H]2C1	10.85	-	2.887	3.962
COc1c(C2CCCN2CC(=O)N(C)c2nccs2)c(C)nn1C (configuration not stated)	-17.09	1.069	2.767	-5.618
O=C1OC2(CCNCC2)CN1CC(=O)N1CCC1c1cccs1 (configuration not stated)	-7.552	-1.319	-2.91	3.949
CCn1ncc2c1CN(C(=O)c1ccc3c(c1)OCO3)CC2COC (configuration not stated)	1.79	-2.75	-34.5	-2.686
Cc1cc(CC(C)NC(=O)c2cccc(CC3CCNCC3)c2)[nH]n1 (configuration not stated)	-2.794	-7.692	-15.54	7.723
CCc1cnc(C)nc1NCCSc1nnc(C)n1CC	-18.07	-0.1447	-29.29	3.73
O=C(NCc1ccc2c(c1)CCCO2)c1ccccc1C1CCNC1 (configuration not stated)	-5.529	-1.903	-13.04	0.5531
COc1ccc(N2CCN(C(=O)C(C)n3cc(Br)cn3)CC2)cc1 (configuration not stated)	-12.19	1.943	5.27	-1.206
CCc1cc(C(=O)N2CCCC(c3[nH]ncc3S(C)(=O)=O)C2)no1 (configuration not stated)	-11.96	-	-2.014	3.714
CC(C)N1CCOCC2(CCN(c3cnccn3)CC2)C1	-3.62	-8.095	-4.948	5.696
CN(C)CCNC(=O)Cn1cnc2cc(NC(=O)C3CC3)ccc21	5.098	-2.783	0.9014	2.471
Cc1nc(C(C)C)sc1C(=O)N1CCN(C2CCSCC2)CC1	22.07	-0.7342	2.55	-1.534

Repeated from the top, 6 entries:

Result for CC(c1nc(C2CC2)no1)N1CCN(Cc2ccc(C#N)cc2)CC1 (configuration not stated) was ClpP1P2: -1.566%; MtTrpRS: -3.957%; Pks13 thioesterase: -0.0126%; PfKRS1: -4.234%.
Result for COc1nccnc1N1CCN(Cc2ccc3c(c2)OCO3)C(=O)C1 was ClpP1P2: -8.231%; MtTrpRS: 0.241%; Pks13 thioesterase: -22.36%; PfKRS1: 8.562%.
Result for Cc1ccc(C)c(-c2[nH]c3ccccc3c2C(=O)O)c1 was ClpP1P2: -9.486%; MtTrpRS: 1.124%; Pks13 thioesterase: -11.49%; PfKRS1: 2.288%.
Result for COCC1CCN(Cc2cc(O)c3c(C)ccc(C)c3n2)CC1 was ClpP1P2: 8.371%; MtTrpRS: -2.511%; Pks13 thioesterase: -2.755%; PfKRS1: -3.302%.
Result for O=C(CCc1cccs1)N1CCC(Nc2cccnn2)CC1 was ClpP1P2: -2.164%; MtTrpRS: 4.776%; Pks13 thioesterase: -11.17%; PfKRS1: 0.7181%.
Result for O=C(NCC1CC1)Nc1ccc(OCC(F)(F)F)nc1 was ClpP1P2: -4.171%; MtTrpRS: -3.209%; Pks13 thioesterase: -11.36%; PfKRS1: 0.8768%.

From ChEMBL document CHEMBL3988442, “University of Dundee, Small-Polar-MMV Screening Library” (2021).